Measurements from paper PMC8401404 (Molecules, 2021).

Key:
A549 [1] = test: MTS cytotoxicity assay, 2D cell culture; details: Homo sapiens, A549, 72 h, read-out: Cytotoxicity Assay IC50 ± SD; A549 2D
Experimental: (§1) MTS assay gives us information about the number of living cells, in this case, metabolically active cells, whereas the BrdU proliferation assay gives a measure of the cell population in active division phase. Both assays were performed in 2D and 3D assay formats. For the 2D cell assay format, we used classic two-dimensional in vitro assays and as a 3D assay we used a hanging drop proliferation cell assay as previously described. We explored the activity of compounds on three human lung cancer cell lines, A549, HCC827 and NCI-H358. The compound activity was also tested on human lung fibroblast cell line MRC-5. A two-dimensional in vitro viability assay was performed on the MRC-5 cell line to see if tested compounds are cytotoxic on normal cell lines in low concentrations. […] 7.1.
(§2) Test compounds were synthesized by a research group at the Department of Organic Chemistry, Faculty of Chemical Engineering and Technology, University of Zagreb. […] Compounds were diluted 1:3. We transferred 500 nL (for 2D cell culture) or 400 nL (for 3D cell culture) of the compound from a mother plate to test plate by using Mosquito (TTP labtech). DMSO percentage in test concentrations was 0.5–1.0%. […]
(§3) Cells were grown in 96-well cell star polystyrene plates. […] After 0.5–2 h of cell incubation with MTS in 2D cell culture, the plates were read using PE EnVision absorbance at 490 nm. […]

NCI-H358 [2] = test: MTS cytotoxicity assay, 2D cell culture; details: Homo sapiens, NCI-H358, 72 h, read-out: Cytotoxicity Assay IC50 ± SD; NCI-H358 2D
Experimental: as §1, §2, §3

A549 [3] = test: Cytotoxicity (viability) assay, 3D hanging drop cell culture; details: Homo sapiens, A549, 72 h, read-out: Cytotoxicity Assay IC50 ± SD; A549 3D
Experimental: as §1
(§4) Test compounds were synthesized by a research group at the Department of Organic Chemistry, Faculty of Chemical Engineering and Technology, University of Zagreb. […] Compounds were diluted 1:3. We transferred 500 nL (for 2D cell culture) or 400 nL (for 3D cell culture) of the compound from a mother plate to test plate by using Mosquito (TTP labtech). DMSO percentage in test concentrations was 0.5–1.0%. Starting concentration of the test compounds and standard compound doxorubicin was 50 µM (2D cell culture) or 100 µM (3D cell culture).
(§5) Cells were grown in 96-well Perfecta 3D hanging drop plates 5000 cell/well for 4 days until spheres were formed (and checked under the microscope). After sphere formation cells were treated with compounds followed by 72 h incubation. Cell viability assay was performed according to the manufacturer’s instructions, using CellTiter GLO 3D for 3D cell culture (Promega); cell incubation was 5 min on the shaker followed by 25 min incubation in the dark. Plates were read using PE EnVision luminescence.
(§6) Calculation of IC50 data, curves and QC analysis was performed by using Excel tools and GraphPadPrism software (La Jolla, CA, USA), v. […] QC criteria parameters (Z’, S:B, R2, HillSlope) were checked for every IC50 curve.

HCC827 [4] = test: as above; details: Homo sapiens, HCC827, 72 h, read-out: Cytotoxicity Assay IC50 ± SD; HCC827 3D
Experimental: as §1, §4, §5, §6

NCI-H358 [5] = test: as above; details: Homo sapiens, NCI-H358, 72 h, read-out: Cytotoxicity Assay IC50 ± SD; NCI-H358 3D
Experimental: as §1, §4, §5, §6

HCC827 [6] = test: BrdU proliferation assay, 3D hanging drop cell culture; type: cell-based; details: Homo sapiens, HCC827, read-out: Proliferation Assay IC50 ± SD; HCC827 3D
Experimental: as §1, §2
Cells were grown in 96-well Perfecta 3D hanging drop plates 5000 cell/well for 4 days until spheres were formed (and checked under the microscope). […] Plates were read using PE EnVision luminescence. […]

Structure (SMILES): CN[C@@H]1C[C@H]2O[C@@](C)([C@@H]1OC)n1c3ccccc3c3c4c(c5c6ccccc6n2c5c31)C(=O)NC4 [Staurosporine, reference compound]
- IC50 (A549 [1]): 47 ± 7 nM
- IC50 (NCI-H358 [2]): 41 ± 7 nM
- IC50 (A549 [3]): 95 ± 10 nM
- IC50 (HCC827 [4]): 2 ± 0.1 nM
- IC50 (NCI-H358 [5]): 2 ± 1 nM
- IC50 (HCC827 [6]): 3 ± 2 nM
